Data from patent publication US6242482A, “Prostaglandin compounds and derivatives thereof, compositions containing the same and method of using the same for the treatment of congestive heart failure” (priority 2000, dated 2001).
Some results were stated once for a whole list of compounds, not compound by compound.

System: mesenteric arteries
Assay: Relaxation of mesenteric arteries in vitro
Format: cell-based

SMILES: CCCCCC(CCC1C(OC(C)=O)CC2Cc3c(cccc3OCC(=O)O)CC21)OC(C)=O (stereo not shown) [Compound 4, Compound X Diacetate]
- relaxation of mesenteric arteries: concentration-dependent relaxation of mesenteric arteries
